Entries after “also recorded” stand apart in the source; their conditions may differ.
System: lipid droplet in MEF or SH-SY5Y cells
Assay: Verification of BODIPY lipid droplet detection in the presence of high compound concentration
Assay type: cell-based
Settings: 50 μM Sudan IV, OA-induced cells, compared with DMSO control

## Cc1ccccc1/N=N/c1ccc(/N=N/c2c(O)ccc3ccccc23)c(C)c1 [Sudan IV, reference compound]
  lipid droplet BODIPY signal in the presence of the compound: no decrease; also recorded: no signal change
